These are yes or no findings as the source states them, for the method shown. Binding seen in cells or lysates may run through a third protein. A yes stands for co-enrichment or nearness to the bait. Other partners may have been found.
Key:
Test in all cases: affinity purification with mass spectrometry
PCGF4 (human) = PCGF4 (human) (UniProt P35226)
CBX6 (human) = molecular target: T1, CBX6 (human) (UniProt O95503)
T1 sequence: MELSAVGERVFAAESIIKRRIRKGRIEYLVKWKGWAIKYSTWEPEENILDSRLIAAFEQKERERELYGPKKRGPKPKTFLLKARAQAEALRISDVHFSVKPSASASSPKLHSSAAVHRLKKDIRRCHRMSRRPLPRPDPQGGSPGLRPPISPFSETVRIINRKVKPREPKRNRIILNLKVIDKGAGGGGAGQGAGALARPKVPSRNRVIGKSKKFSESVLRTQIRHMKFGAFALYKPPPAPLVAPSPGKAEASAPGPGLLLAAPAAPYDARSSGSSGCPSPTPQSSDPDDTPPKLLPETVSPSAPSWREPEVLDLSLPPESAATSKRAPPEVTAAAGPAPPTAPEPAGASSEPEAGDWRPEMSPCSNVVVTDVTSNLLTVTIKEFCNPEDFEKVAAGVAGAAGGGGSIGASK

Sequences of proteins named here, by UniProt entry; tags and fusion partners are left off.
UniProt P35226: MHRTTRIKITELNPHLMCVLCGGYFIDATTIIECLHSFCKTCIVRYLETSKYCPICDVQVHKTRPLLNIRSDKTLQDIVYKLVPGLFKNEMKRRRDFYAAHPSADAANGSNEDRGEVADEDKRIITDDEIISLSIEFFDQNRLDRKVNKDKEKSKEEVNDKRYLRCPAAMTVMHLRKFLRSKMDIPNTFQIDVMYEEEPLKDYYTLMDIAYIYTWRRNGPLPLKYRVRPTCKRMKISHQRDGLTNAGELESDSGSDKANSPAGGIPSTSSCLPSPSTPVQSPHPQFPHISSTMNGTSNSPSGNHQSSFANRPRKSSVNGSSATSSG
UniProt O95931: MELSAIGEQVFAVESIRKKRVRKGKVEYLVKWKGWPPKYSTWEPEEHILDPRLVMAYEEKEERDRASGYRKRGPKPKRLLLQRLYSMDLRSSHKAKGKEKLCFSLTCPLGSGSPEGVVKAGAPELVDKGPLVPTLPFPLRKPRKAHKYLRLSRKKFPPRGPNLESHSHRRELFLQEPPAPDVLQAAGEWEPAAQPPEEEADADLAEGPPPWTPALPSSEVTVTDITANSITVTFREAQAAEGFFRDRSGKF
UniProt Q14781: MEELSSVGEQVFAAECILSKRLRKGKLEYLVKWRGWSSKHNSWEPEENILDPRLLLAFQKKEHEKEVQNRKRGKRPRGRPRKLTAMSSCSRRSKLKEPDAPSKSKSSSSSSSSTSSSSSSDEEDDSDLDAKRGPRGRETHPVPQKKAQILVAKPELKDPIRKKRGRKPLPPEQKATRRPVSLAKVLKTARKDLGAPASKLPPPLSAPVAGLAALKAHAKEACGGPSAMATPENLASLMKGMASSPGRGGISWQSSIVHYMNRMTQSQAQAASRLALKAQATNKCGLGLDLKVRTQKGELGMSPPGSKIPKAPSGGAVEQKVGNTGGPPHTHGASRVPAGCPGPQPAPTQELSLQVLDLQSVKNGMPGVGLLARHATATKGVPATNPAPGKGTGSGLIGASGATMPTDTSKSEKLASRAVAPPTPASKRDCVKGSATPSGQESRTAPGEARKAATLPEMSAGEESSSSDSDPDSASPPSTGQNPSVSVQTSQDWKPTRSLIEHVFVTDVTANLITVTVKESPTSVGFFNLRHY
UniProt Q9BSM1: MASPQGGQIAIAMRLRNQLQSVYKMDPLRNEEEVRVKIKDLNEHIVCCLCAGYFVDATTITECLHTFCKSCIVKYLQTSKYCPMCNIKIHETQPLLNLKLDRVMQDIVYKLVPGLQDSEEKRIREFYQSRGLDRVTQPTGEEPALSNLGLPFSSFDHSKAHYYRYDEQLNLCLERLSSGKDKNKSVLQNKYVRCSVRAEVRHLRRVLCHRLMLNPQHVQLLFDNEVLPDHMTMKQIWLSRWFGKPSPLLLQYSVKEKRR
UniProt P63208: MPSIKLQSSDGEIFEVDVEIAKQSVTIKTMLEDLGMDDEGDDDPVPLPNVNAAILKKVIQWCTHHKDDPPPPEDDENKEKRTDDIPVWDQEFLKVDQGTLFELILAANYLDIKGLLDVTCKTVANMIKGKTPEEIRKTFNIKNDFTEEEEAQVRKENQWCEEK

CBX7 (human) = CBX7 (human) (UniProt O95931)
PHC3 (human) = molecular target: T2, PHC3 (human) (UniProt Q8NDX5)
T2 sequence: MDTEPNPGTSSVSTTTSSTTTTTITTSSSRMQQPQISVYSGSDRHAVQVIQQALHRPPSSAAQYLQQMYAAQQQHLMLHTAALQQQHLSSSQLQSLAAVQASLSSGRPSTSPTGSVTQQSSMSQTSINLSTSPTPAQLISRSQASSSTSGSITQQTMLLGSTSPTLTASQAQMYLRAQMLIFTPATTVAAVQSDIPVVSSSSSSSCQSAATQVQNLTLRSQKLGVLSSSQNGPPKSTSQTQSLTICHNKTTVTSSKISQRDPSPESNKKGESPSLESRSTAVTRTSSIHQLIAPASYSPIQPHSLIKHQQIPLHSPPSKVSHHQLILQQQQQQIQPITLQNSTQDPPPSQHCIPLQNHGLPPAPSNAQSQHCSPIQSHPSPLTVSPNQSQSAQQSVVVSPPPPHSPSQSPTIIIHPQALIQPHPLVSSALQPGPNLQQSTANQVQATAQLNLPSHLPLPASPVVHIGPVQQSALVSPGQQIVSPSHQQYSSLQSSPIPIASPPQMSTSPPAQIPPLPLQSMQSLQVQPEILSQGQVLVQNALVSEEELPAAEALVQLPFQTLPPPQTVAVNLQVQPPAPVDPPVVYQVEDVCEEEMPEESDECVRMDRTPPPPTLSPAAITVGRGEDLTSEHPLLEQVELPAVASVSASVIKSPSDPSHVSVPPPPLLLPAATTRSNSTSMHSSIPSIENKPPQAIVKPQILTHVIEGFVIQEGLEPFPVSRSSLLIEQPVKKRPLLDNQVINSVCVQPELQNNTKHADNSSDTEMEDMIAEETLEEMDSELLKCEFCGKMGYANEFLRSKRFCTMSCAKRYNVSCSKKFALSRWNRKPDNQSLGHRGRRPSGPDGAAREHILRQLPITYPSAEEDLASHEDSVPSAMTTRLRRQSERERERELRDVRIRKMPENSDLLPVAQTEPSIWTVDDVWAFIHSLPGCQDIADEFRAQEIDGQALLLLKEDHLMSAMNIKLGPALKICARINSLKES

CBX2 (human) = CBX2 (human) (UniProt Q14781)
PCGF1 (human) = PCGF1 (human) (UniProt Q9BSM1)
SKP1 (human) = SKP1 (human) (UniProt P63208)
SUZ12 (human), Q15022 = conditions: remark: other sources report otherwise
EZH1 (human), Q92800 = molecular target: T3, EZH1 (human), Q92800; conditions: remark: other sources report otherwise
T3 chain: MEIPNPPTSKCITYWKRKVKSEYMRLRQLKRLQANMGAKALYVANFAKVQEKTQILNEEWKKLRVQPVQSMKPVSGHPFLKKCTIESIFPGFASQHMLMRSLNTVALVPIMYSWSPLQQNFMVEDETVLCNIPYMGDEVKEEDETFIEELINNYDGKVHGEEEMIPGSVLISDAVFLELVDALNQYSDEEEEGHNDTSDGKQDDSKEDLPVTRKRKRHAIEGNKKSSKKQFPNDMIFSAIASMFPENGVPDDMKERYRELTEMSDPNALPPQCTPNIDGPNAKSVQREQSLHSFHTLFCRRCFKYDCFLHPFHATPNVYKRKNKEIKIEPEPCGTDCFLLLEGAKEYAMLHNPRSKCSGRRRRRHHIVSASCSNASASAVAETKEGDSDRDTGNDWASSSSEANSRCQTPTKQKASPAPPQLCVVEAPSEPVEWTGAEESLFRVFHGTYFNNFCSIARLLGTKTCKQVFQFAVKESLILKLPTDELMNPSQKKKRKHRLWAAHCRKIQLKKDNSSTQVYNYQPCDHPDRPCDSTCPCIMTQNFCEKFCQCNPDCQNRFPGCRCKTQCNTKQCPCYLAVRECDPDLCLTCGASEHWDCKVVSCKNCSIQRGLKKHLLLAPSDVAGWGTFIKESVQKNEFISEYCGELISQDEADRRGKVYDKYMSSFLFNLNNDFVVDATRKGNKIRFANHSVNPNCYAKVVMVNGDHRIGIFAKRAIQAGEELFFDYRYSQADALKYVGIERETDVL

EED (human), O75530 = conditions: remark: other sources report otherwise

Measured: binding

B1: NUFP2 (Nuclear fragile X mental retardation interacting protein 2) (protein, UniProt Q7Z417 1-695)
chain: MEEKPGQPQPQHHHSHHHPHHHPQQQQQQPHHHHHYYFYNHSHNHHHHHHHQQPHQYLQHGAEGSPKAQPKPLKHEQKHTLQQHQETPKKKTGYGELNGNAGEREISLKNLSSDEATNPISRVLNGNQQVVDTSLKQTVKANTFGKAGIKTKNFIQKNSMDKKNGKSYENKSGENQSVDKSDTIPIPNGVVTNNSGYITNGYMGKGADNDGSGSESGYTTPKKRKARRNSAKGCENLNIVQDKIMQQETSVPTLKQGLETFKPDYSEQKGNRVDGSKPIWKYETGPGGTSRGKPAVGDMLRKSSDSKPGVSSKKFDDRPKGKHASAVASKEDSWTLFKPPPVFPVDNSSAKIVPKISYASKVKENLNKTIQNSSVSPTSSSSSSSSTGETQTQSSSRLSQVPMSALKSVTSANFSNGPVLAGTDGNVYPPGGQPLLTTAANTLTPISSGTDSVLQDMSLTSAAVEQIKTSLFIYPSNMQTMLLSTAQVDLPSQTDQQNLGDIFQNQWGLSFINEPSAGPETVTGKSSEHKVMEVTFQGEYPATLVSQGAEIIPSGTEHPVFPKAYELEKRTSPQVLGSILKSGTTSESGALSLEPSHIGDLQKADTSSQGALVFLSKDYEIESQNPLASPTNTLLGSAKEQRYQRGLERNDSWGSFDLRAAIVYHTKEMESIWNLQKQDPKRIITYNEAMDSPDQ
binds: PCGF4 (human) | CBX6 (human) | CBX7 (human) | PHC3 (human) | CBX2 (human)

B2: KDM2B (protein, UniProt Q8NHM5 1-1336)
chain: MAGPQMGGSAEDHPPRKRHAAEKQKKKTVIYTKCFEFESATQRPIDRQRYDENEDLSDVEEIVSVRGFSLEEKLRSQLYQGDFVHAMEGKDFNYEYVQREALRVPLIFREKDGLGIKMPDPDFTVRDVKLLVGSRRLVDVMDVNTQKGTEMSMSQFVRYYETPEAQRDKLYNVISLEFSHTKLEHLVKRPTVVDLVDWVDNMWPQHLKEKQTEATNAIAEMKYPKVKKYCLMSVKGCFTDFHIDFGGTSVWYHVFRGGKIFWLIPPTLHNLALYEEWVLSGKQSDIFLGDRVERCQRIELKQGYTFFIPSGWIHAVYTPVDSLVFGGNILHSFNVPMQLRIYEIEDRTRVQPKFRYPFYYEMCWYVLERYVYCVTQRSHLTQEYQRESMLIDAPRKPSIDGFSSDSWLEMEEEACDQQPQEEEEKDEEGEGRDRAPKPPTDGSTSPTSTPSEDQEALGKKPKAPALRFLKRTLSNESEESVKSTTLAVDYPKTPTGSPATEVSAKWTHLTEFELKGLKALVEKLESLPENKKCVPEGIEDPQALLEGVKNVLKEHADDDPSLAITGVPVVTWPKKTPKNRAVGRPKGKLGPASAVKLAANRTTAGARRRRTRCRKCEACLRTECGECHFCKDMKKFGGPGRMKQSCIMRQCIAPVLPHTAVCLVCGEAGKEDTVEEEEGKFNLMLMECSICNEIIHPGCLKIKESEGVVNDELPNCWECPKCNHAGKTGKQKRGPGFKYASNLPGSLLKEQKMNRDNKEGQEPAKRRSECEEAPRRRSDEHSKKVPPDGLLRRKSDDVHLRKKRKYEKPQELSGRKRASSLQTSPGSSSHLSPRPPLGSSLSPWWRSSLTYFQQQLKPGKEDKLFRKKRRSWKNAEDRMALANKPLRRFKQEPEDELPEAPPKTRESDHSRSSSPTAGPSTEGAEGPEEKKKVKMRRKRRLPNKELSRELSKELNHEIQRTENSLANENQQPIKSEPESEGEEPKRPPGICERPHRFSKGLNGTPRELRHQLGPSLRSPPRVISRPPPSVSPPKCIQMERHVIRPPPISPPPDSLPLDDGAAHVMHREVWMAVFSYLSHQDLCVCMRVCRTWNRWCCDKRLWTRIDLNHCKSITPLMLSGIIRRQPVSLDLSWTNISKKQLSWLINRLPGLRDLVLSGCSWIAVSALCSSSCPLLRTLDVQWVEGLKDAQMRDLLSPPTDNRPGQMDNRSKLRNIVELRLAGLDITDASLRLIIRHMPLLSKLHLSYCNHVTDQSINLLTAVGTTTRDSLTEINLSDCNKVTDQCLSFFKRCGNICHIDLRYCKQVTKEGCEQFIAEMSVSVQFGQVEEKLLQKLS
binds: PCGF1 (human) | SKP1 (human)

B3: RBBP7, Q16576 1-425 (protein)
chain: MASKEMFEDTVEERVINEEYKIWKKNTPFLYDLVMTHALQWPSLTVQWLPEVTKPEGKDYALHWLVLGTHTSDEQNHLVVARVHIPNDDAQFDASHCDSDKGEFGGFGSVTGKIECEIKINHEGEVNRARYMPQNPHIIATKTPSSDVLVFDYTKHPAKPDPSGECNPDLRLRGHQKEGYGLSWNSNLSGHLLSASDDHTVCLWDINAGPKEGKIVDAKAIFTGHSAVVEDVAWHLLHESLFGSVADDQKLMIWDTRSNTTSKPSHLVDAHTAEVNCLSFNPYSEFILATGSADKTVALWDLRNLKLKLHTFESHKDEIFQVHWSPHNETILASSGTDRRLNVWDLSKIGEEQSAEDAEDGPPELLFIHGGHTAKISDFSWNPNEPWVICSVSEDNIMQIWQMAENIYNDEESDVTTSELEGQGS
binds: SUZ12 (human), Q15022 | EZH1 (human), Q92800 | EED (human), O75530
